No constants are given. Whether binding was seen depends on the method and setting. Binding seen in cells or lysates may run through a third protein. Here binding means that the protein was enriched with, or labelled near, the bait; the list need not be complete. For some assays here: No binding means not detected with the bait.

What all share (assay): proximity labelling
Assay [1] has as its target E-HA/TurboID^Site3 (SARS-CoV-2) (UniProt P0DTC4).
Assay [2] deals with E-HA/TurboID^Site4 (SARS-CoV-2) (UniProt P0DTC4).
For assay [3], the target named is E-HA/TurboID^Site3ΔDLLV (SARS-CoV-2) (UniProt P0DTC4).
Assay [4] has as its target E-HA/TurboID^Site4ΔDLLV (SARS-CoV-2) (UniProt P0DTC4).

On to SEC31A (from UniProt O94979 1-1220), for which the binding result in assay [1] and in assay [2] was “binds” throughout.

Consider “tight junction protein–1 (TJP1) (from UniProt Q07157 1-1748)”, for which the binding result in assay [3] and in assay [4] was “no binding” in each case.

On to SEC24A (from UniProt O95486 1-1093), for which the binding entry in assay [1] and in assay [2] was “binds” each time.

With SEC24B (from UniProt O95487 1-1268), the binding entry in assay [1] and in assay [2] was “binds” in each case.

With “AP1AR/Gadkin (from UniProt Q63HQ0 1-302)”, in assay [1], the binding entry was “binds”.

Take PALS-1 (from UniProt Q8N3R9 1-675): the binding entry in assay [3] and in assay [4] was “no binding” in each case.
